Data set [1] can be described thus: general procedure: Fmoc solid-phase peptide synthesis; Wang resin; HBTU (DIC/DMAP for first amino acid; HATU for PEG27 linker). To be noted: whole synthesis, based on the synthesis scale of 0.2 mmol, scale 0.2 mmol.
Data set [2] in a line: general procedure: Fmoc solid-phase peptide synthesis; Wang resin (100–200 mesh, 0.9 mmol/g); HBTU (DIC/DMAP for first amino acid; HATU for PEG27 linker). To be noted: whole synthesis.

Some peptides are written in HELM: one residue between dots, names in brackets for other building blocks, links after the first $.

For “PEPTIDE1{[For].M.I.F.L.G.G.K.K}|PEPTIDE2{[dC].[dD].G.[Tyr3NO2].G.[Hyp].N.[dC].[PEG27]}|PEPTIDE3{[dC].[dD].G.[Tyr3NO2].G.[Hyp].N.[dC].[PEG27]}$PEPTIDE1,PEPTIDE2,8:R3-9:R2|PEPTIDE1,PEPTIDE3,9:R3-9:R2|PEPTIDE2,PEPTIDE2,1:R3-8:R3|PEPTIDE3,PEPTIDE3,1:R3-8:R3$$$V2.0”, in data set [1], the isolated yield is on record as 20%. Moreover, the “final purity (method not given)” value in data set [2] (RP-HPLC, ESI-MS, scale of the general procedure 0.2 mmol) is “more than 98%”. Moreover, in data set [2] (scale 0.2 mmol), the isolated mass is listed as 207 mg.

(Values after PMC5730604 (2017).)
